The text below walks through data of article PMC13155533, “The secreted protein PCYOX1L controls the surface expression of acid-sensing ion channel 1a” (Science Advances, 2025).

The assay has as its target T1, rat ASIC1a-GFP (rat) (UniProt P55926).
T1 sequence: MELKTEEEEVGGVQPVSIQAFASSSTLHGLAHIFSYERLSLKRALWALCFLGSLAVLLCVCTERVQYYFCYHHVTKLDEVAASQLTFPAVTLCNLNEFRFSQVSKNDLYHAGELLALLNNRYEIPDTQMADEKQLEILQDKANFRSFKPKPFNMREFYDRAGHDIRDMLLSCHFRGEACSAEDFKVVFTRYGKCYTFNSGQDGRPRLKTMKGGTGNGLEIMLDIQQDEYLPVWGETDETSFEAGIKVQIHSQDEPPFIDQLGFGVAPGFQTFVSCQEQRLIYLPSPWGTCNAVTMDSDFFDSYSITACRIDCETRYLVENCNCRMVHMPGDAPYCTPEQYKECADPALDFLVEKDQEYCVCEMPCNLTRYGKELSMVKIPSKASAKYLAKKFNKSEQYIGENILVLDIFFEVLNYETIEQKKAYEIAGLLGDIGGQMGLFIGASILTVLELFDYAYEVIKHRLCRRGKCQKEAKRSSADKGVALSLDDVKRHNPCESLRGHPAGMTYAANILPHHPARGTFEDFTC
The experiment in a line: native gel or EMSA; high-resolution clear native PAGE (4 to 16%) of GFP-tagged proteins from 1% digitonin lysates of transfected HEK cells, GFP fluorescence scan; ASIC1a-GFP coexpressed with PCYOX1L-GFP.

These are yes or no findings as the source states them, for the method shown. Sequences can lack the tags named with a protein.

Turning to rat PCYOX1L-GFP, the binding result was “no binding”.
